Source: article PMC9896810

Chains of the proteins cited; added tags and fusions are not shown. Lines headed by an entry give the natural chain unless they say otherwise; changes in a name come on top.
UniProt Q13905: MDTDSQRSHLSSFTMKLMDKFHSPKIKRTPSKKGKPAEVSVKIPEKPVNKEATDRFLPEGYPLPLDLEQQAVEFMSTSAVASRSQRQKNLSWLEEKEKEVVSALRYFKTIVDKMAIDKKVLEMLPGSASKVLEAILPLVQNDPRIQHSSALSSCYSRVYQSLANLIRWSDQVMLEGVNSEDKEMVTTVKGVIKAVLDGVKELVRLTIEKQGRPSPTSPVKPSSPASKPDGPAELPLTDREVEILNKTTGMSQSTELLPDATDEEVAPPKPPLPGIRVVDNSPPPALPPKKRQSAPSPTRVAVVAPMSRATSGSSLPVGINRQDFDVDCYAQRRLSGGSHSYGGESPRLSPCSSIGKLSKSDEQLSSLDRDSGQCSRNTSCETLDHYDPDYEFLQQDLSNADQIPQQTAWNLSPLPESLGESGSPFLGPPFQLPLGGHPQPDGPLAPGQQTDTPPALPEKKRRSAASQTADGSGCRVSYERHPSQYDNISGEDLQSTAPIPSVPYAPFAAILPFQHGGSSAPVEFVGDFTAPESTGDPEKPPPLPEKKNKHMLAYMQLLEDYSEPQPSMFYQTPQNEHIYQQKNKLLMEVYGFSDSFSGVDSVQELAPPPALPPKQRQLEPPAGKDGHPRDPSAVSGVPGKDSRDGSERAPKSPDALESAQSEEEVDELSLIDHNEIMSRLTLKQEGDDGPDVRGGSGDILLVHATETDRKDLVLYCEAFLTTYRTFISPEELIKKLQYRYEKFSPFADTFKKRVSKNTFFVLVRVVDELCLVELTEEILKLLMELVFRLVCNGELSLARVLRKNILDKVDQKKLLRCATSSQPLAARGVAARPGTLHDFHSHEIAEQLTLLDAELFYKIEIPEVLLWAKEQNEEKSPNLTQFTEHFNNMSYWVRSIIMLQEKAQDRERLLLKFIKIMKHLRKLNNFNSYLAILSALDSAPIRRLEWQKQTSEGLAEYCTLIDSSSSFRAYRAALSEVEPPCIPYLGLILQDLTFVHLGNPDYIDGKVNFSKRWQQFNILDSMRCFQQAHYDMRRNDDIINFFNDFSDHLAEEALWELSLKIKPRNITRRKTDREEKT
UniProt P46109: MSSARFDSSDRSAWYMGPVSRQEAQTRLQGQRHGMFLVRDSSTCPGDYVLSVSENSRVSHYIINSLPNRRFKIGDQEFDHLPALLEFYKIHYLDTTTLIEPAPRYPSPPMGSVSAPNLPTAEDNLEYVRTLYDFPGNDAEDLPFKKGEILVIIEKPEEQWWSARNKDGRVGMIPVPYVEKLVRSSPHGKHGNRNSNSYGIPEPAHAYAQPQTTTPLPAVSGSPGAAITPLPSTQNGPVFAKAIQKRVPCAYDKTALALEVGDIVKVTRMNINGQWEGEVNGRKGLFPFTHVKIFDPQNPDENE

What was measured:
[1] = target: C3G-AAAP (human) (UniProt Q13905); test: ITC; single-PRM mutants of C3G in the cell titrated with full-length CrkL or CrkL-SH3N; 25 °C; 1:1 model in SEDPHAT; N is the competent fraction of C3G; both purified
[2] = target: C3G-AAAP-Y554H (human) (UniProt Q13905); test: as above
[3] = target: C3G-APAA-mEGFP (HEK293T, transient) (human) (UniProt Q13905); test: co-IP; HEK293T cells transiently expressing C3G-mEGFP, lysed 48 h after transfection; abGFP4 nanobody resin against GFP; endogenous CrkL by western blot
[4] = target: C3G-AAPP-mEGFP (HEK293T, transient) (human) (UniProt Q13905); test: as above
[5] = target: C3G-PPAA-mEGFP (HEK293T, transient) (human) (UniProt Q13905); test: as above
[6] = target: C3G-PAAA-mEGFP (HEK293T, transient) (human) (UniProt Q13905); test: as above
[7] = target: C3G-PPAA-mEGFP (Jurkat, stable) (human) (UniProt Q13905); test: co-IP; Jurkat cells stably expressing C3G-mEGFP; lysate (0.5% Triton X-100, 150 mM NaCl) on abGFP4 nanobody resin against GFP overnight at 4 °C; endogenous CrkL by western blot
[8] = target: C3G-APAA-mEGFP (Jurkat, stable) (human) (UniProt Q13905); test: as above
[9] = target: C3G-AAPP-mEGFP (Jurkat, stable) (human) (UniProt Q13905); test: as above
[10] = target: C3G-PAAA-mEGFP (Jurkat, stable) (human) (UniProt Q13905); test: as above

Question: With “CrkL-SH3N (residues 125-182) (from UniProt P46109 125-182) (domain or fragment)” as the substance, how does the binding [1] read?
Answer: Its binding is “binds”.

Question: What about the binding [2] of the same substance?
Answer: Its binding is “binds”.

Question: How did the binding [3] turn out when “endogenous CrkL (HEK293T cells) (from UniProt P46109 1-303)” was run?
Answer: Its binding is “binds”.

Question: And the binding [4]?
Answer: The binding was “binds”.

Question: And the binding [5]?
Answer: The binding was “binds”.

Question: What about the binding [6] of the same substance?
Answer: The binding was “binds”.

Question: “endogenous CrkL (Jurkat cells) (from UniProt P46109 1-303)” was tested. Which binding [7] did it give?
Answer: Its binding is “binds”.

Question: And the binding [8]?
Answer: The binding was “binds”.

Question: And the binding [9]?
Answer: Its binding is “binds weakly”.

Question: What about the binding [10] of the same substance?
Answer: The binding was “binds”.

No constants are given. Whether binding was seen depends on the method and setting. Binding calls can cover weak binding; strength is not graded here. For some of these results: Binding seen in cells or lysates may run through a third protein.
